In paper PMC5537225, “Therapeutic efficacy of a respiratory syncytial virus fusion inhibitor” (Nature Communications, 2017):
Where two headings read alike, the source gives them in different places.

Assays:
[1] = system: rgRSV224 D489Y mutant strain; format: cell-based, respiratory syncytial virus; settings: mutant selected with JNJ-53718678
rgRSV224 = format: cell-based, respiratory syncytial virus

Cc1ccc(CCCO)c(NCc2ccc3nc(NCCCN4CCOCC4)n(Cc4nc(C)ccc4O)c3c2)c1 [TMC353121]
FC (fold change over wild-type strain) mutant strain D489Y [1]: 81 | EC50 (rgRSV224; mock-treated rgRSV224 during in vitro selection procedure, read-out: EC50 wild-type strain (untreated control)): 0.4 nM | EC50 (rgRSV224; read-out: EC50 parent strain (rgRSV224)): 0.13 nM
